Patent US20230192686A1, “1H-PYRROLO[2,3-B]PYRIDINES AND PREPARATION AND USES THEREOF” (BioSplice Therapeutics, Inc., priority 2021, published 2023)

Molecular target: recombinant DYRK1A kinase (Homo sapiens, UniProt Q13627)
Experiment: DYRK1A kinase assay (Ser/Thr 18 peptide Z-lyte FRET)
Details: DYRK1A kinase activity; 15 μM ATP, 4 μM Ser/Thr peptide 18, one hour at room temperature
Method: Representative compounds were screened using the assay procedure for DYRK1A kinase activity as described below.
Each compound was dissolved in DMSO as a 10 mM stock and used to prepare compound source plates. Serial dilution (1:3, 11-point dose-response curves from 10 μM to 0.00016 μM) and compound transfer was performed using the ECHO 550 (Labcyte, Sunnyvale, Calif.) into 1536-well black-walled round bottom plates (Corning).
The DYRK1A kinase assay was run using the Ser/Thr 18 peptide Z-lyte assay kit according to manufacturer's instructions (Life Technologies—a Division of Thermo-Fisher). This is a non-radioactive assay using fluorescence resonance energy transfer (FRET) between coumarin and fluorescein to detect kinase activity which is represented as a ratio of coumarin emission/fluorescein emission. […]
After incubation, Development Reagent A was diluted in Development Buffer then added to the reaction and allowed to further incubate for one hour at room temperature. The plate was read at Ex 400 Em 455 to detect the coumarin signal and Ex 400 Em 520 to measure the signal (EnVision Multilabel Plate Reader, PerkinElmer).
The Emission ratio (Em) was calculated as a ratio of the coumarin (C) emission signal (at 445 nm)/Fluorescein (F) emission signal (at 520 nm). […]

| SMILES | EC50 [nM] |
| --- | --- |
| c1cnc2[nH]cc(-c3ccc4ncncc4c3)c2c1 | 4 |
| Cc1nc2ncc(-c3c[nH]c4nc(C5CC5)ccc34)cc2n1C(C)C | 7 |

Structures were worked out from names or drawings and are uncertain.
